From PMC7432781, “An EPR Study on the Interaction between the Cu(I) Metal Binding Domains of ATP7B and the Atox1 Metallochaperone” (International Journal of Molecular Sciences, 2020)
Results are given in words; binding and its absence hold for the method and conditions named. Some binding calls cover weakened binding; strength is not graded here.

B1: Atox1 metallochaperone, wild-type, non spin-labeled (natural protein, human)
chain: MPKHEFSVDMTCGGCAEAVSRVLNKLGGVKYDIDLPNKKVCIESEHSMDTLLATLKKTGKTVSYLGLE
notes: Atox1 copper metallochaperone, human, wild type
B2: Atox1 metallochaperone, spin-labeled at C41 (protein, UniProt O00244 1-68)
chain: B1 chain
modifications: MTSL nitroxide spin label (R1) on C41

What was measured:
[1] = molecular target: T1, ATP7B metal binding domains 1-3, spin-labeled (human) (UniProt P35670); test: DEER (pulsed EPR distance measurement); Q-band, 50 ± 1.0 K; spin-labeled MBDs in the absence and presence of Atox1 or sl-Atox1; both purified
T1 sequence (chain, MTSL nitroxide spin label (R1) on C108, C113 and C305): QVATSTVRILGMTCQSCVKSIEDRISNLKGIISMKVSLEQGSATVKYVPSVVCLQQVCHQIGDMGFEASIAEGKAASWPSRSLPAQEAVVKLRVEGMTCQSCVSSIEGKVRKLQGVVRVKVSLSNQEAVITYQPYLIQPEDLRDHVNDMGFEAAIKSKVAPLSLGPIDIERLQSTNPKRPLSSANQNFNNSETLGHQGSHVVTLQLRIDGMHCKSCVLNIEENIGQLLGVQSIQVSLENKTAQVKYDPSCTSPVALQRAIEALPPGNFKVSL

[2] = molecular target: T1, ATP7B metal binding domains 1-3, spin-labeled (human); test: CW-EPR of spin-labeled proteins; X-band, room temperature (292 ± 5 K), in solution; Atox1 or sl-Atox1 added to spin-labeled MBDs at 1:1 (Atox1:MBD); with and without Cu(I); spin-labeled protein 0.01-0.03 mM; both purified

Binder	binding [1]	binding [2]
B1	binds	binds
B2	binds	binds
